PubChem BioAssay AID686938 – Drosophila RNAi Screening Center, 2013
The screen tested about 23,000 reagents; below is an unselected part of those with a known target gene and a result. Of all reagents, 75 (0.33%) are marked active. 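Raw plate signals without normalisation; calls rest on plate z-scores that were not deposited; ratio present for only 364 wells.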 A number with no mark means an inactive call. Reagents against one gene are numbered here. Reagent sequences are not shown. Not given: the dose of the treatment.

Purpose: 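Fly genes required for calcium entry once internal stores are emptied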 (primary screen)
System: Drosophila S2R+ cells
Reagents: long dsRNA against Drosophila genes, about 0.25 µg dsRNA per well, roughly 10,000 cells
Duration: 5 days of knock-down before the calcium assay
Treatment: thapsigargin (SERCA pump blocker) to empty calcium stores; entry signal taken 4 min after adding it
Measured: 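Per-well fluo-4 fluorescence in two replicates, unnormalised, measured in resting cells and 4 min after store depletion by the SERCA blocker thapsigargin; ratio of the two present in few wells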
Direction: calcium entry signal: higher = stronger calcium signal after store depletion; entry to resting ratio: higher = more calcium entry relative to resting level; resting calcium signal: higher = higher resting calcium signal
Units: calcium entry signal in fluorescence units; resting calcium signal in fluorescence units
Active means: 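Called when the plate z-score of the entry-to-rest ratio, mean of duplicates, falls below −3; wells with low overall dye signal (Fmax z below −2) or more than five off-targets excluded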
Calls: active = strongly reduced calcium entry; inactive = no strong reduction

{"Target gene": "mmy (GeneID 33903)", "dsRNA no.": 1, "calcium entry signal, replicate 1": 6.33e7, "resting calcium signal, replicate 1": 3.25e7}
{"Target gene": "CG6426 (GeneID 36891)", "dsRNA no.": 1, "calcium entry signal, replicate 1": 3.17e7, "calcium entry signal, replicate 2": 2.78e7, "resting calcium signal, replicate 1": 1.46e7, "resting calcium signal, replicate 2": 1.36e7}
{"Target gene": "CG12470 (GeneID 30977)", "dsRNA no.": 1, "calcium entry signal, replicate 1": 4.32e7, "calcium entry signal, replicate 2": 4.76e7, "entry to resting ratio": 2.1, "resting calcium signal, replicate 1": 2.05e7, "resting calcium signal, replicate 2": 2.03e7}
{"Target gene": "CG31391 (GeneID 41280)", "dsRNA no.": 1, "calcium entry signal, replicate 1": 3.56e7, "calcium entry signal, replicate 2": 3.52e7, "resting calcium signal, replicate 1": 1.64e7, "resting calcium signal, replicate 2": 1.97e7}
{"Target gene": "mRpS16 (GeneID 36570)", "dsRNA no.": 1, "calcium entry signal, replicate 1": 3.56e7, "calcium entry signal, replicate 2": 3.93e7, "resting calcium signal, replicate 1": 1.91e7, "resting calcium signal, replicate 2": 1.65e7}
{"Target gene": "Tim23 (GeneID 3355096)", "dsRNA no.": 1, "calcium entry signal, replicate 1": 5.70e7, "calcium entry signal, replicate 2": 4.25e7, "resting calcium signal, replicate 1": 2.96e7, "resting calcium signal, replicate 2": 1.94e7}
{"Target gene": "PGRP-SC2 (GeneID 35862)", "dsRNA no.": 1, "calcium entry signal, replicate 1": 3.98e7, "calcium entry signal, replicate 2": 4.99e7, "resting calcium signal, replicate 1": 1.85e7, "resting calcium signal, replicate 2": 1.89e7}
{"Target gene": "Atg1 (GeneID 39454)", "dsRNA no.": 1, "calcium entry signal, replicate 1": 5.14e7, "calcium entry signal, replicate 2": 3.65e7, "resting calcium signal, replicate 1": 3.29e7, "resting calcium signal, replicate 2": 1.53e7}
{"Target gene": "Atg1 (GeneID 39454)", "dsRNA no.": 2, "calcium entry signal, replicate 1": 2.18e7, "calcium entry signal, replicate 2": 3.32e7, "resting calcium signal, replicate 1": 1.16e7, "resting calcium signal, replicate 2": 1.48e7}
{"Target gene": "CG2021 (GeneID 38229)", "dsRNA no.": 1, "calcium entry signal, replicate 1": 3.60e7, "calcium entry signal, replicate 2": 3.67e7, "resting calcium signal, replicate 1": 1.85e7, "resting calcium signal, replicate 2": 1.65e7}
{"Target gene": "Sidpn (GeneID 35168)", "dsRNA no.": 1, "calcium entry signal, replicate 1": 5.42e7, "resting calcium signal, replicate 1": 2.64e7}
{"Target gene": "CG5885 (GeneID 34314)", "dsRNA no.": 1, "calcium entry signal, replicate 1": 4.71e7, "resting calcium signal, replicate 1": 2.01e7}

Single entries from the entries so far:
Entry of CG31391 (GeneID 41280) under “resting calcium signal, replicate 1”: 1.64e7
mRpS16 (GeneID 36570), calcium entry signal, replicate 2 = 3.93e7
